Measured values from the supplement of paper PMC8728848.
The other results are listed elsewhere or left out.

Experiments:
Experiment in all cases: glycan array binding signal (z-score within array); higher = stronger binding
Settings in all cases: glycan notation: IUPAC condensed, linker removed
Neu5Ac(a2-8)Neu5Ac = target: Neu5Ac(a2-8)Neu5Ac
How it was run: (§1)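 Glycan array binding is given as a within-array Z-score, which can be read as non-binding when negative. The arrays, 3228 of them, came from the Consortium for Functional Glycomics database and were retained only where the protein sequence was available. Z-scores were averaged across arrays of the same protein sequence at different concentrations or buffers and across linkers.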

[1] = target: Neu5Ac(a2-8)Neu5Ac(a2-3)Gal(b1-3)GalNAc(b1-4)[Neu5Ac(a2-3)]Gal(b1-4)Glc
How it was run: as §1

[2] = target: Neu5Ac(a2-8)Neu5Ac(a2-3)Gal(b1-3)GalNAc(b1-4)[Neu5Ac(a2-8)Neu5Ac(a2-3)]Gal(b1-4)Glc
How it was run: as §1

[3] = target: Neu5Ac(a2-8)Neu5Ac(a2-3)Gal(b1-4)Glc
How it was run: as §1

[4] = target: Neu5Ac(a2-8)Neu5Ac(a2-3)Gal(b1-4)GlcNAc
How it was run: as §1

[5] = target: Neu5Ac(a2-8)Neu5Ac(a2-3)[Gal(b1-3)GalNAc(b1-4)]Gal(b1-4)Glc
How it was run: as §1

[6] = target: Neu5Ac(a2-8)Neu5Ac(a2-3)[GalNAc(b1-4)]Gal(b1-4)Glc
How it was run: as §1

[7] = target: Neu5Ac(a2-8)Neu5Ac(a2-8)Neu5Ac
How it was run: as §1

[8] = target: Neu5Ac(a2-8)Neu5Ac(a2-8)Neu5Ac(a2-3)Gal(b1-4)Glc
How it was run: as §1

[9] = target: Neu5Ac(a2-8)Neu5Ac(a2-8)Neu5Ac(a2-3)[Gal(b1-3)GalNAc(b1-4)]Gal(b1-4)Glc
How it was run: as §1

[10] = target: Neu5Ac(a2-8)Neu5Ac(a2-8)Neu5Ac(a2-3)[GalNAc(b1-4)]Gal(b1-4)Glc
How it was run: as §1

[11] = target: Neu5Ac(a2-8)Neu5Ac(a2-8)Neu5Ac(a2-8)Neu5Ac(a2-3)[GalNAc(b1-4)]Gal(b1-4)Glc
How it was run: as §1

[12] = target: Neu5Ac(a2-8)Neu5Gc(a2-3)Gal(b1-4)GlcNAc
How it was run: as §1

[13] = target: Neu5Ac(b2-6)Gal(b1-4)GlcNAc
How it was run: as §1

Neu5Ac(b2-6)GalNAc = target: Neu5Ac(b2-6)GalNAc
How it was run: as §1

[14] = target: Neu5Ac9Ac(a2-3)Gal(b1-3)GlcNAc
How it was run: as §1

[15] = target: Neu5Ac9Ac(a2-3)Gal(b1-4)GlcNAc
How it was run: as §1

[16] = target: Neu5Ac9Ac(a2-6)Gal(b1-4)GlcNAc
How it was run: as §1

[17] = target: Neu5Gc(a2-3)Gal(b1-3)GlcNAc
How it was run: as §1

[18] = target: Neu5Gc(a2-3)Gal(b1-3)[Fuc(a1-4)]GlcNAc
How it was run: as §1

Neu5Gc(a2-3)Gal(b1-4)Glc = target: Neu5Gc(a2-3)Gal(b1-4)Glc
How it was run: as §1

[19] = target: Neu5Gc(a2-3)Gal(b1-4)GlcNAc
How it was run: as §1

[20] = target: Neu5Gc(a2-3)Gal(b1-4)GlcNAc(b1-3)Gal(b1-4)GlcNAc(b1-2)Man(a1-3)[Neu5Gc(a2-3)Gal(b1-4)GlcNAc(b1-3)Gal(b1-4)GlcNAc(b1-2)Man(a1-6)]Man(b1-4)GlcNAc(b1-4)GlcNAc
How it was run: as §1

[21] = target: Neu5Gc(a2-3)Gal(b1-4)[Fuc(a1-3)]GlcNAc
How it was run: as §1

[22] = target: Neu5Gc(a2-6)Gal(b1-4)GlcNAc
How it was run: as §1

Neu5Gc(a2-6)GalNAc = target: Neu5Gc(a2-6)GalNAc
How it was run: as §1

[23] = target: Neu5Gc(a2-8)Neu5Ac(a2-3)Gal(b1-4)GlcNAc
How it was run: as §1

[24] = target: Neu5Gc(a2-8)Neu5Gc(a2-3)Gal(b1-4)GlcNAc
How it was run: as §1

[25] = target: Neu5Gc(a2-8)Neu5Gc(a2-3)Gal(b1-4)GlcNAc(b1-3)Gal(b1-4)GlcNAc
How it was run: as §1

[26] = target: Neu5Gc(a2-8)Neu5Gc(a2-6)Gal(b1-4)GlcNAc
How it was run: as §1

[27] = target: Neu5Gc(b2-6)Gal(b1-4)GlcNAc
How it was run: as §1

B1: PX9961M-bvu-482-23-482 (Bacteroides vulgatus) (protein)
chain: WLDLAPSTQVDTETSINVLSDIEFTLNGIYSTMQSSDAYSGRLVYYGDVTGDDMQAVSSTKRTGNYYRFNFTKDNGPSSHWSYLYSIIQNCNLILMNVDKLSIDEDETEYKNDLKGQALAIRGMALFDLTRIFGYPYLKDNGASLGVPIVKELSTIDSKPARNTVAECYTEIISDLKNSTELLSGDFNKGKVNRWAAMTLLSRVYLYKGEYNEALTMAENAIKGAEKEGYALWTNEEYPTAWGNDASASNPGEILFEIVNLTTDSPGKESMGYLNSYNGYDDMCITCSFYQLLKKDPKDVRLKILSFDKKYYAYVNKYQPQQGENITDANIPLIRLSEAYLNAAEAAVQTGDNAKAVKYLNSIVQRANPENSVEGKTLTLENVLDERRKELVAEGHRMYDVIRNGMTVKRIDVKDSDINKTKHNTAYMEYDWNFHKILLPIPKKEMDANPNMKQNPGYVD
glycan array binding signal (z-score) (Neu5Ac(a2-8)Neu5Ac): 0.366 | glycan array binding signal (z-score) [1]: 0.534 | glycan array binding signal (z-score) [2]: -1.07 | glycan array binding signal (z-score) [3]: 0.075 | glycan array binding signal (z-score) [4]: 0.316 | glycan array binding signal (z-score) [5]: -0.531 | glycan array binding signal (z-score) [6]: -0.405 | glycan array binding signal (z-score) [7]: -0.752 | glycan array binding signal (z-score) [8]: -0.188 | glycan array binding signal (z-score) [9]: -0.778 | glycan array binding signal (z-score) [10]: -0.066 | glycan array binding signal (z-score) [11]: 0.048 | glycan array binding signal (z-score) [12]: 18 | glycan array binding signal (z-score) [13]: -1.13 | glycan array binding signal (z-score) (Neu5Ac(b2-6)GalNAc): -0.083 | glycan array binding signal (z-score) [14]: 0.98 | glycan array binding signal (z-score) [15]: -0.723 | glycan array binding signal (z-score) [16]: -0.642 | glycan array binding signal (z-score) [17]: -0.493 | glycan array binding signal (z-score) [18]: -0.288 | glycan array binding signal (z-score) (Neu5Gc(a2-3)Gal(b1-4)Glc): 0.689 | glycan array binding signal (z-score) [19]: -0.652 | glycan array binding signal (z-score) [20]: -0.131 | glycan array binding signal (z-score) [21]: 0.76 | glycan array binding signal (z-score) [22]: 0.549 | glycan array binding signal (z-score) (Neu5Gc(a2-6)GalNAc): -0.028 | glycan array binding signal (z-score) [23]: -0.58 | glycan array binding signal (z-score) [24]: -0.374 | glycan array binding signal (z-score) [25]: -0.334 | glycan array binding signal (z-score) [26]: -0.75 | glycan array binding signal (z-score) [27]: -0.362
